Measurements: the supplement of paper PMC12889115
Some of the results follow. Values are raw readings; no control value is given beside them.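 Primary screen: polymyxin B was added at a level permeabilizing Salmonella outer membranes while sparing inner membranes. DMSO wells, both with and without polymyxin B, established maximum growth. Plate-to-plate variation meant each plate was ranked on its own, and the lowest-OD600 compounds were selected as hits.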

Test system: Salmonella enterica serovar Typhimurium SL1344
Assay: bacterial growth OD600 after 18 h with compound and polymyxin B; higher = more bacterial growth (less inhibition)
Settings: 50 µM, Mueller-Hinton broth

Structure (SMILES)	bacterial growth OD600 (polymyxin B 0.75 µg/mL)	bacterial growth OD600 (polymyxin B 1 µg/mL)
Nc1ncc(CN(CCN2CCCCC2)CC2CCCN(C3CCCC3)C2)cn1 (stereo unspecified)	0.871	–
COc1ccc(F)c(CN2CCCC3(CCN(C(=O)C4CCC4)C3)C2=O)c1 (stereo unspecified)	0.775	–
C=CCCC(=O)N1CCCC(C(=O)Nc2ccc(-c3cccc(OC)c3)cc2)C1 (stereo unspecified)	–	0.758
O=C(COc1ccc(Cl)cc1)NCc1cccnc1N1CCOCC1	–	0.924
CC#CC(=O)NC1CC(=O)N(Cc2cccc(F)c2)C1 (stereo unspecified)	–	0.863
CCCCN(C)Cc1cnc(S(=O)(=O)CCC(C)C)n1CCOC	–	0.987
Fc1ccccc1-c1n[nH]c2c1CN(Cc1cccc3ncccc13)CC2	0.834	–
CN(CC1CCCN(CCc2ccc(Cl)cc2)C1)C(=O)Cn1cnnn1 (stereo unspecified)	0.859	–
CC(NC(=O)CCc1ccccc1)c1nnc2n1CCN(Cc1ccc3c(c1)Cc1ccccc1-3)CC2 (stereo unspecified)	0.008	–
O=C(c1ccccc1OC1CCN(C2CCC2)CC1)N1CCCCC1	–	0.903
CN(Cc1ccc2nsnc2c1)C1CCCN(CCc2ccccc2)C1 (stereo unspecified)	–	1.03
O=C(NCCCn1cccn1)c1ccccc1OC1CCN(C(=O)c2cccnc2)CC1	1.02	–
CC(C)(C)NC(=O)C1CCCN(C2CCN(C3Cc4ccccc4C3)CC2)C1 (stereo unspecified)	0.785	–
COc1ccc(/C=C/C(=O)NCC2CCC3(CCN(CCCc4ccccc4)CC3)O2)cc1OC (stereo unspecified)	0.842	–
COc1ccccc1CCN1CCCC(CN(C)C(=O)c2cc(C(C)C)nn2C)C1 (stereo unspecified)	–	0.821
CCOc1ccc2nc(N3CCCC3C(=O)N3CCCOc4c(cccc4OC)C3)nc(C)c2c1 (stereo unspecified)	0.797	–

Structure (SMILES)	bacterial growth OD600 (polymyxin B 0.75 µg/mL)	bacterial growth OD600 (polymyxin B 1 µg/mL)
COCCN1CCCC2(CCN(C(=O)c3ccc(F)cc3)C2)C1=O (stereo unspecified)	–	0.858
CCn1ccnc1[C@@H]1C[C@H]2CN(Cc3ccccc3C)C(=O)[C@]23CCCN13	0.807	–
CCc1ccc(CN2CCC(CCC(=O)NCC3CCCN3CC)CC2)o1 (stereo unspecified)	0.772	–
Cc1cc(C(=O)N2CCCC(CCc3c(F)cccc3F)C2)n(C)n1 (stereo unspecified)	0.011	–
CN(Cc1cnccn1)c1ccc(-c2nc(Cc3ccccc3)no2)cn1	0.717	–
CC(C)N1CCC(NCc2cccnc2N(C)Cc2ccccc2)CC1	–	0.915
CN(CCc1ccccc1)C1(C(=O)NCc2nccn2C)Cc2ccccc2C1	0.338	–
O=C(NCC1CCCN(C2CCN(Cc3ccccn3)CC2)C1)c1ccc2c(c1)OCO2 (stereo unspecified)	0.97	–
CSCCNCc1c[nH]nc1-c1ccc(-c2ccccc2)cc1	–	0.699
COC(=O)C(CCSC)NC(=O)CCc1nnc(-c2ccc(C)s2)o1 (stereo unspecified)	0.816	–
CCOC(=O)C1(CCOC)CCN(Cc2cc(C)ccc2-n2cccn2)CC1	–	0.806
CC(O)(COc1ccccc1)c1ccc2c(c1)CN(Cc1ccsc1)CCO2 (stereo unspecified)	0.69	–
COc1cc(CN2CCOc3ccc(C(O)Cc4ccccc4)cc3C2)cc2c1OCO2 (stereo unspecified)	0.694	–
Cc1ccccc1CCC1CCCN(C(=O)c2snnc2C)C1 (stereo unspecified)	0.72	–
O=C(NC1CC(=O)N(Cc2cccc3ccccc23)C1)c1cnccn1 (stereo unspecified)	–	0.959

Reformatted with each value named: entries from further up.
COc1ccc(/C=C/C(=O)NCC2CCC3(CCN(CCCc4ccccc4)CC3)O2)cc1OC (stereo unspecified)
  bacterial growth OD600 (polymyxin B 0.75 µg/mL): 0.842
COc1ccccc1CCN1CCCC(CN(C)C(=O)c2cc(C(C)C)nn2C)C1 (stereo unspecified)
  bacterial growth OD600 (polymyxin B 1 µg/mL): 0.821
